Experimental findings from paper doi:10.1101/2020.12.22.404020 are described below.

The chains behind the UniProt entries cited, without tags or fusion partners.
UniProt O00139: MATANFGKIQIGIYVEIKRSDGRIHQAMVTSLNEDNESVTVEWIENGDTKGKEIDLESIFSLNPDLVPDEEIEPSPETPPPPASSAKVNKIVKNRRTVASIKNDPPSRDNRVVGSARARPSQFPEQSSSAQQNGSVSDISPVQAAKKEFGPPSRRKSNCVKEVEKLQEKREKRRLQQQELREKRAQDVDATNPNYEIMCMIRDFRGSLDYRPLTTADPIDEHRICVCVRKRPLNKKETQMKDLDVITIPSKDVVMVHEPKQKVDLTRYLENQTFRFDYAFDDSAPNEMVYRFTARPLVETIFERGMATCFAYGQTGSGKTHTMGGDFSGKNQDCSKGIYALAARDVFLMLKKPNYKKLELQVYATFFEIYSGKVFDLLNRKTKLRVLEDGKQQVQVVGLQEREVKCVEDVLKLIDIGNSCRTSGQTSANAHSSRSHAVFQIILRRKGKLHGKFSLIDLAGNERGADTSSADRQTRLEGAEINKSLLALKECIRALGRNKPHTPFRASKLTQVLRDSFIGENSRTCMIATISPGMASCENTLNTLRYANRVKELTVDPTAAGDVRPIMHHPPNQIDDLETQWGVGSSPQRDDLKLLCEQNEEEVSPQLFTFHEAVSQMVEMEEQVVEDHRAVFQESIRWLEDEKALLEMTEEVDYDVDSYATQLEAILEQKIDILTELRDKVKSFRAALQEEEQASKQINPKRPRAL
UniProt Q9Y297: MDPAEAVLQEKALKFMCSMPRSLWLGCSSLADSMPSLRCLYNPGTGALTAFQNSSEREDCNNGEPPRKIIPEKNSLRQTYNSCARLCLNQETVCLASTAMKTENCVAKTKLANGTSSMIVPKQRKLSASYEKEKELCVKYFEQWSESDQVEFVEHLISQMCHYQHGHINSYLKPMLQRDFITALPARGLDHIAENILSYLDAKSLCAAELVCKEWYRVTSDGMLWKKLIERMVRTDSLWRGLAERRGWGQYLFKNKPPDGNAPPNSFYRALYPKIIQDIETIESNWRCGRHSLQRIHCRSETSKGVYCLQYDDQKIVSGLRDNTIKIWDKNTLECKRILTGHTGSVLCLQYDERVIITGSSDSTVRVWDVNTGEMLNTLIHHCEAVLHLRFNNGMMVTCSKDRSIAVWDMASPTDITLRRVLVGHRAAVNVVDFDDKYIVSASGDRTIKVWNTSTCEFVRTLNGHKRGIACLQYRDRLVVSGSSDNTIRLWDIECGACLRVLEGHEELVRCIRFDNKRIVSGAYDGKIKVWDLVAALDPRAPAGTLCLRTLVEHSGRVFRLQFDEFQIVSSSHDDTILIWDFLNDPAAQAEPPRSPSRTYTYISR
UniProt P49674: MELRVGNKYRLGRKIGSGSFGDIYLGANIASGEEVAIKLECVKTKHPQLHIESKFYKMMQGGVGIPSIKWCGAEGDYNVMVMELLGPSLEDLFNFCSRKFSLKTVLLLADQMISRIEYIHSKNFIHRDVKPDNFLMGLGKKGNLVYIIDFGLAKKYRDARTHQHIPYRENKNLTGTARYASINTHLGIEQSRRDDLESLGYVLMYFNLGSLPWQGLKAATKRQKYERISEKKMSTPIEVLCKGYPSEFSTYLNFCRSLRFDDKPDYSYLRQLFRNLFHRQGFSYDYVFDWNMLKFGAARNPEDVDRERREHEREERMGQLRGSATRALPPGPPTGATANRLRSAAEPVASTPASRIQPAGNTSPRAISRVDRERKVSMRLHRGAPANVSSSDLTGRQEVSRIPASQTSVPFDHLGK
UniProt P53350: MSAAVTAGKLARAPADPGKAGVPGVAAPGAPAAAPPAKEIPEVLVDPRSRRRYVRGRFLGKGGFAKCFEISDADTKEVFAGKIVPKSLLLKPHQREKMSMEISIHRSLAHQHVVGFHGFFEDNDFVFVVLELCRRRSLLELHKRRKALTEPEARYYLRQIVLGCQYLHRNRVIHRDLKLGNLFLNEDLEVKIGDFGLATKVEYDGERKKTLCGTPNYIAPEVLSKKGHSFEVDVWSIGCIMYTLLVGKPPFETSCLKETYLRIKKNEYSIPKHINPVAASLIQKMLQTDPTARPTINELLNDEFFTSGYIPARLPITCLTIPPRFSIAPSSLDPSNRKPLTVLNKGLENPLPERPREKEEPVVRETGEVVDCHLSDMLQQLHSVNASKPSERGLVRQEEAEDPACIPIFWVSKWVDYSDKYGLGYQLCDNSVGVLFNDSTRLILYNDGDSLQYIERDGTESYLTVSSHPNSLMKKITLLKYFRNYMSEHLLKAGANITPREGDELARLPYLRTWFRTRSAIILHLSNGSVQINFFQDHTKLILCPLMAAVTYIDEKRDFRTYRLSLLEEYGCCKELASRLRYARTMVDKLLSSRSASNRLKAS
UniProt P35222: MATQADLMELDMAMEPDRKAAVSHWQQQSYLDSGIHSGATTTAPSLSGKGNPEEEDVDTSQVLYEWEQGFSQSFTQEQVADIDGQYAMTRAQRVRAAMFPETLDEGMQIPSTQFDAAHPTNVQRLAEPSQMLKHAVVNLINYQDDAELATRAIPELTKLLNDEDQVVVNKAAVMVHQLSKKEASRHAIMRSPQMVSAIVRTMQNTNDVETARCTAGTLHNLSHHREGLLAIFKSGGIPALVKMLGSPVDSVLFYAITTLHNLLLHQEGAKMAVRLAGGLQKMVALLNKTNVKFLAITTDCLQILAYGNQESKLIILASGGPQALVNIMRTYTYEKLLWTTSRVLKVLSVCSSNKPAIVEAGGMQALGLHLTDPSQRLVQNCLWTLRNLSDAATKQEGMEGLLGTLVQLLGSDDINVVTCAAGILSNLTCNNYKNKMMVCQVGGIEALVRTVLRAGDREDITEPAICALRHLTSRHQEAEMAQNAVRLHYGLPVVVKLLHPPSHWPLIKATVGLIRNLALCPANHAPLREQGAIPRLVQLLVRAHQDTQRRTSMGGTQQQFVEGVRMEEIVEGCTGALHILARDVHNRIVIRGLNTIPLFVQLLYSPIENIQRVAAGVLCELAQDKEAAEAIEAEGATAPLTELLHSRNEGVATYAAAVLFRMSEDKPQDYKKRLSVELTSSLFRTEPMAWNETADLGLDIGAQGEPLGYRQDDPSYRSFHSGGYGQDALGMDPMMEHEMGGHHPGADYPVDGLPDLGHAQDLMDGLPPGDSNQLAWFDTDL
UniProt O15169: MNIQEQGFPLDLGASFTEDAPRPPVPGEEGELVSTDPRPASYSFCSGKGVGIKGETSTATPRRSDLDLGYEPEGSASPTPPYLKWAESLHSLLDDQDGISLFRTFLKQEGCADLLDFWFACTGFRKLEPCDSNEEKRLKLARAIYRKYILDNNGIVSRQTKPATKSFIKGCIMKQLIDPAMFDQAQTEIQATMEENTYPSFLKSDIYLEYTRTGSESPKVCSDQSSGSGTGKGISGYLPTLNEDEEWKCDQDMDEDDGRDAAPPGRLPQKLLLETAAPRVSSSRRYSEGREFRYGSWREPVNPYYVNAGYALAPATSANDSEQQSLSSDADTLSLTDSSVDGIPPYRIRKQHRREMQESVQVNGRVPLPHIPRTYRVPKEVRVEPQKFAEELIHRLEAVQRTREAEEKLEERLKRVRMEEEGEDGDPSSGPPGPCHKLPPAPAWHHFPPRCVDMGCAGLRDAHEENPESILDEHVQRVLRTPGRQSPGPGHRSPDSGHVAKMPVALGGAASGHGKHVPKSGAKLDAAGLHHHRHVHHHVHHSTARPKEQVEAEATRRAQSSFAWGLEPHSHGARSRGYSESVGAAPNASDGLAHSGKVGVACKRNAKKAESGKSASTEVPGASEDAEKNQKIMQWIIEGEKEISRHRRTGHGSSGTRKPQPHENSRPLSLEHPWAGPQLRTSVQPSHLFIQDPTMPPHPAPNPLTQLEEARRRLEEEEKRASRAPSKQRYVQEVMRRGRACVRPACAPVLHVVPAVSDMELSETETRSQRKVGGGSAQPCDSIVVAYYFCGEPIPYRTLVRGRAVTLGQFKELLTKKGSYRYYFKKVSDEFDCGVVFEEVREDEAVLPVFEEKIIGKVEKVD
UniProt P49841: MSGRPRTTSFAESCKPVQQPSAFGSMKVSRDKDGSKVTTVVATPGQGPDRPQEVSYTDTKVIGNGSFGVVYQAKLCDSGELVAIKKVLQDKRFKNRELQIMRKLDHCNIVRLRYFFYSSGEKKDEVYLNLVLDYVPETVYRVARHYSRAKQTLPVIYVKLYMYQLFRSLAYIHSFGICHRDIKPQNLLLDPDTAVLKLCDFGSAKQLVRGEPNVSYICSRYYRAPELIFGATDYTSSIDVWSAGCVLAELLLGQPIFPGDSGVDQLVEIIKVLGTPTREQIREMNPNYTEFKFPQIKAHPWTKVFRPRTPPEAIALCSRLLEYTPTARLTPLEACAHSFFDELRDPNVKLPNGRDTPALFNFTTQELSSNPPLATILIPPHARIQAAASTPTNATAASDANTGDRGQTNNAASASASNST

Results are given in words; binding and its absence hold for the method and conditions named. Binding seen in cells or lysates may run through a third protein. Some binding calls cover weakened binding; strength is not graded here.

One test concerns the target EGFP-KIF2A (UniProt O00139). The experiment in a line: proximity ligation.
For test [1], the target named is endogenous KIF2A (human (endogenous in HeLa)) (UniProt O00139). The experiment in a line: proximity ligation.

With FLAG-β-TrCP (from UniProt Q9Y297 1-605), the binding result in the test with EGFP-KIF2A is reported as “no binding”.
On the same count and under the same terms, the value for “FLAG-hCK1ε (from UniProt P49674 1-416) (enzyme)” was “no binding”.
In the case of “endogenous PLK1 (from UniProt P53350 1-603) (enzyme)”, the binding result in test [1] was “binds”.
Turning to “FLAG-β-catenin (from UniProt P35222 1-781)”, the binding entry in the test with EGFP-KIF2A is reported as “no binding”.
Still for that read-out and setting: the value for FLAG-Axin1 (from UniProt O15169 1-862) was “binds”; that for “FLAG-GSK3 (from UniProt P49841 1-420) (enzyme)” was “no binding”.
